PubChem BioAssay AID1224829 | NIAID – 2016

Screen: 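Genes needed for LPS-driven NF-kappaB p65 nuclear entry in mouse macrophages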 (follow-up of hits)
Cell system: mouse RAW264.7 G9 macrophage reporter cells
Knock-down reagent: single siRNA against mouse genes, 100 nM
Duration: 2 days of siRNA knock-down, then 40 min of LPS before fixing
Treatment: LPS (Salmonella minnesota R595) at 10 ng/ml
Read-out: 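Imaging of GFP-p65 after 40 min of LPS; nuclear over perinuclear ring intensity ratio, scaled to plate median and non-targeting control wells, given as z-score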
Direction: p65 translocation z-score: higher = more nuclear NF-kappaB p65 after LPS
Call rule: 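An siRNA is called active when the mean z-score of its two replicates is above 2 or below -2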
Calls: active = changed p65 translocation (either direction); inactive = no clear change
The whole screen tested about 3,800 reagents; below is a part drawn at random. 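Calls cover raised and lowered translocation; gene median uses one vendor's three siRNAs; qiagen siRNAs acted more weakly than ambion siRNAs.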 The numbers tell different reagents against one gene apart. Not all columns of the deposit are shown.

Nanp #1, siRNA vendor or control pool ambion single siRNA — p65 translocation z-score, replicate mean: 1.43; call: inactive
Nanp #2, siRNA vendor or control pool ambion single siRNA — p65 translocation z-score, replicate mean: -2.36; call: active
Nanp #3, siRNA vendor or control pool ambion single siRNA — p65 translocation z-score, replicate mean: -2.99; call: active
Nanp #4, siRNA vendor or control pool qiagen single siRNA — p65 translocation z-score, replicate mean: -1.53; call: inactive
Nanp #5, siRNA vendor or control pool qiagen single siRNA — p65 translocation z-score, replicate mean: -3.17; call: active
Nanp #6, siRNA vendor or control pool qiagen single siRNA — p65 translocation z-score, replicate mean: -4.31; call: active
Slc51a #1, siRNA vendor or control pool ambion single siRNA — p65 translocation z-score, replicate mean: -2.56; call: active
Slc51a #2, siRNA vendor or control pool ambion single siRNA — p65 translocation z-score, replicate mean: -0.978; call: inactive
Slc51a #3, siRNA vendor or control pool ambion single siRNA — p65 translocation z-score, replicate mean: 0.29; call: inactive
Slc51a #4, siRNA vendor or control pool qiagen single siRNA — p65 translocation z-score, replicate mean: 0.914; call: inactive
Slc51a #5, siRNA vendor or control pool qiagen single siRNA — p65 translocation z-score, replicate mean: 1.12; call: inactive
Slc51a #6, siRNA vendor or control pool qiagen single siRNA — p65 translocation z-score, replicate mean: 2.5; call: active
